Measurements: patent publication US20240342071A1 (SHENZHEN WINKEY TECHNOLOGY CO., LTD, priority 2021, published 2024)

Experiment: general procedure: peptide synthesis; Amide Resin
Settings: whole synthesis, scale of the general procedure 5 g resin

In the case of PEPTIDE1{[ac].F.F.W.F.K.V.[am]}$$$$V2.0, the “crude purity (method not given)” value is reported as 76% and the “final purity (method not given)” value is reported as 99.027%.

Strings that start with PEPTIDE1 are HELM notation: dots part the residues, brackets hold end groups and non-standard residues.
